PubChem BioAssay AID1259308 – NCATS – 2017
Shown is an unselected part of about 59,000 reagents tested. In the full data, about 1,510 (2.6%) got an active call. 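Calls use total luciferase alone and ignore viability, so some active siRNAs may act by altering cell number.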 Reagents against one gene are numbered here.

Screen: 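Knock-downs that increase output of a recombinant reporter protein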 (primary screen)
Cell system: human HEK293 embryonic kidney cells stably expressing firefly luciferase (HEK-CMV-Luc2-Hygro)
Reagents: single siRNA against human genes, 0.8 pmol siRNA per well
Duration: 72 h
Detection: 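Reporter luminescence and viable-cell signal on separate replicate plates, given as percent of non-targeting control and median/MAD z-scores, plus per-cell luciferase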
Scale: total luciferase, z-score and total luciferase, % of control: higher = more reporter protein produced; luciferase per cell, z-score: higher = more reporter output per viable cell; viable cells, % of control: higher = more viable cells
Hit rule: 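An siRNA counts as active if its total luciferase robust z-score exceeds 3; genes with two or more such siRNAs out of three were retested with fresh siRNAs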
Calls: active = raised luciferase; inactive = no rise

The first 4 entries, ahead of the listing:
target gene | reagent | total luciferase, z-score | total luciferase, % of control | luciferase per cell, z-score | viable cells, % of control | outcome
GJB4 | 1 | -0.65 | 69 | -0.502 | 87.9 | inactive
GJB4 | 2 | -0.453 | 72.9 | -0.279 | 87.6 | inactive
GJB4 | 3 | 0.714 | 96.1 | 2.09 | 61.9 | inactive
RNF4 | 1 | 3.44 | 150 | 1.91 | 102 | active

The list itself, from the start:
target gene | reagent | total luciferase, z-score | total luciferase, % of control | luciferase per cell, z-score | viable cells, % of control | outcome
GJB4 | 1 | -0.65 | 69 | -0.502 | 87.9 | inactive
GJB4 | 2 | -0.453 | 72.9 | -0.279 | 87.6 | inactive
GJB4 | 3 | 0.714 | 96.1 | 2.09 | 61.9 | inactive
RNF4 | 1 | 3.44 | 150 | 1.91 | 102 | active
RNF4 | 2 | -0.148 | 78.9 | -0.534 | 102 | inactive
RNF4 | 3 | 0.876 | 99.3 | 1.26 | 79.6 | inactive
ENKD1 | 1 | 0.811 | 98 | 0.323 | 101 | inactive
ENKD1 | 2 | -1.22 | 57.6 | -1.25 | 89.6 | inactive
ENKD1 | 3 | -1 | 62 | -1.4 | 100 | inactive
MRPS18B | 1 | -0.117 | 79.6 | -0.142 | 92.3 | inactive
MRPS18B | 2 | 0.303 | 87.9 | 0.444 | 87.4 | inactive
MRPS18B | 3 | 1.61 | 114 | 0.5 | 112 | inactive
PCSK5 | 1 | 0.967 | 101 | 0.625 | 95.8 | inactive
PCSK5 | 2 | 1.4 | 110 | 0.695 | 102 | inactive
PCSK5 | 3 | -0.714 | 67.7 | -0.347 | 82.9 | inactive
C1RL | 1 | 0.0144 | 82.2 | -0.452 | 103 | inactive
C1RL | 2 | -1.55 | 51 | -1.2 | 78.1 | inactive
C1RL | 3 | 1.61 | 114 | 1.8 | 79.2 | inactive
KCNJ4 | 1 | -0.937 | 63.3 | -0.964 | 91.1 | inactive
KCNJ4 | 2 | -1.23 | 57.4 | -0.837 | 79.9 | inactive
KCNJ4 | 3 | 2.81 | 138 | 2.73 | 74.9 | inactive
IGFBP5 | 1 | -0.332 | 75.3 | -0.472 | 95.3 | inactive
IGFBP5 | 2 | -1.46 | 52.9 | -0.475 | 67.1 | inactive
IGFBP5 | 3 | -2.24 | 37.3 | -2.36 | 77.4 | inactive
IL36R | 1 | 0.758 | 97 | 0.284 | 101 | inactive
IL36R | 2 | -0.465 | 72.6 | -0.971 | 105 | inactive
IL36R | 3 | -0.654 | 68.9 | -1.52 | 115 | inactive
NUCKS1 | 1 | 5.99 | 201 | 3.63 | 86.4 | active
NUCKS1 | 2 | 0.769 | 97.2 | 0.351 | 99 | inactive
NUCKS1 | 3 | 1.39 | 110 | 1.34 | 86 | inactive
SVIP | 1 | -0.998 | 62 | -0.821 | 86.1 | inactive
SVIP | 2 | -0.288 | 76.2 | -0.464 | 96.2 | inactive
SVIP | 3 | 2.56 | 133 | 0.58 | 127 | inactive
MTCL1 | 1 | -1.47 | 52.6 | -1.25 | 81.6 | inactive
MTCL1 | 2 | -0.0817 | 80.3 | -0.491 | 102 | inactive
MTCL1 | 3 | 0.0683 | 83.2 | 1.69 | 59.6 | inactive
NUP35 | 1 | 0.373 | 89.3 | 0.208 | 94.5 | inactive
NUP35 | 2 | -0.423 | 73.5 | -0.0262 | 82.7 | inactive
NUP35 | 3 | -0.843 | 65.1 | -0.371 | 80.2 | inactive
THUMPD3 | 1 | 0.782 | 97.4 | -0.00849 | 109 | inactive
THUMPD3 | 2 | -0.991 | 62.2 | -0.738 | 84.4 | inactive
THUMPD3 | 3 | -0.371 | 74.5 | -0.348 | 91.3 | inactive
SLC4A3 | 1 | -0.485 | 72.2 | -1.16 | 110 | inactive
SLC4A3 | 2 | -1.65 | 49.1 | -2.1 | 95.5 | inactive
SLC4A3 | 3 | -0.157 | 78.8 | -0.273 | 94.6 | inactive
FLT4 | 1 | -0.255 | 76.8 | -0.389 | 95.1 | inactive
FLT4 | 2 | 1.24 | 107 | 0.953 | 92.7 | inactive
FLT4 | 3 | -1.18 | 58.4 | -1.07 | 86.5 | inactive
ERV3-1 | 1 | 1.41 | 110 | 0.804 | 99.3 | inactive
ERV3-1 | 2 | 0.0747 | 83.4 | -0.103 | 95.7 | inactive
ERV3-1 | 3 | -2.34 | 35.3 | -1.76 | 62.6 | inactive
NACC1 | 1 | -1.97 | 42.6 | -1.2 | 65.3 | inactive
NACC1 | 2 | 0.396 | 89.8 | 1.09 | 75.3 | inactive
NACC1 | 3 | -0.442 | 73.1 | -0.837 | 102 | inactive
LIMS3 | 1 | 0.51 | 92 | -0.535 | 118 | inactive
LIMS3 | 2 | -0.621 | 69.5 | -0.802 | 96 | inactive
LIMS3 | 3 | -0.55 | 70.9 | -0.437 | 88.9 | inactive
